No constants are given. Whether binding was seen depends on the method and setting.

For this experiment, the target named is Trm10-Δ63 (S. cerevisiae) (UniProt Q12400). Description: cross-linking; BS3 (50-fold molar excess), 6 μM Trm10 with 2 μM tRNA^Gly-GCC, with or without SAM; 20 mM HEPES pH 7.5, 150 mM NaCl, 5 mM BME; room temperature 30 min; SDS-PAGE, Coomassie; both purified.

B1: Trm10-Δ63 (domain or fragment, UniProt Q12400 64-293)
chain: AKIQEYIDRGEEVPQELIREPRINVNQTDSGIEIILDCSFDELMNDKEIVSLSNQVTRAYSANRRANHFAEIKVAPFDKRLKQRFETTLKNTNYENWNHFKFLPDDKIMFGDEHISKDKIVYLTADTEEKLEKLEPGMRYIVGGIVDKNRYKELCLKKAQKMGIPTRRLPIDEYINLEGRRVLTTTHVVQLMLKYFDDHNWKNAFESVLPPRKLDAEAKSASSSPAPKDT
Take B1: the binding entry was “no binding (tested: 6 μM Trm10 with 2 μM tRNA^Gly-GCC)”.

For the origin of these results see article PMC13575423.
